The values below come from patent publication US11883404B2, “Preparation and composition for treatment of malignant tumors” (TAIHO PHARMACEUTICAL CO., LTD., priority 2016, dated 2024).

This assay concerns human small cell lung cancer cell line DMS 114. In words: Cell survival rate assay (CellTiter-Glo 2.0), IC50 and combination index of Compound 1 and Compound 2 (Example 15). Conditions: each medicine alone, 72 hours. It counts as cell-based. How it is done: A human small cell lung cancer cell line DMS 114 was cultured using a Waymouth's medium containing 10% fetal bovine serum. […] A human small cell lung cancer cell line DMS 114 is reported to have a FGFR1 amplification and AKT1 mutation (S266L, R249W).
Cell survival rate was measured using CellTiter-Glo 2.0 (produced by Promega Corp.). […] After incubation at 37° C. for 24 hours under 5% CO2, 25 μL of a medium containing Compound 1 and Compound 2 or a vehicle (DMSO) was added to each well. The concentration of Compound 1 was set to 9 concentrations of an approximately 3-fold dilution series with 10 μM as the highest final concentration. […] The cell survival rates in medicine addition were calculated as a ratio vs. the control group (100%) according to the following equation: Cell survival rate (%)=(Chemiluminescence intensity at the time of medicine addition)/(Chemiluminescence intensity of the control group)×100
Combinations of Compound 1 and Compound 2 concentrations that attained Fa=0.5 (corresponding to ED50), 0.75 (corresponding to ED75), or 0.9 (corresponding to ED90) were extracted on the basis of the Fa values in the DMS 114 cells calculated from the combined Compound 1 and Compound 2 concentrations, and applied to linear curve fitting using CalcuSyn (HULINKS Inc.) to obtain CI.

Turning to `C=CC(=O)N1CC[C@H](n2nc(C#Cc3cc(OC)cc(OC)c3)c3c(N)ncnc32)C1` [Compound 1, (S)-1-(3-(4-Amino-3-((3,5-dimethoxyphenyl)ethynyl)-1H-pyrazolo[3,4-d]pyrimidin-1-yl)pyrrolidin-1-yl)prop-2-en-1-one], the IC50 was 14.6 nM.

As a reminder, the IC50 is the concentration at which inhibition is half-maximal.
